Laboratory results published in article PMC8635156, “Structural and Functional Analysis of SsaV Cytoplasmic Domain and Variable Linker States in the Context of the InvA-SsaV Chimeric Protein” (Microbiology Spectrum, 2021).
No constants are given. Whether binding was seen depends on the method and setting.

By UniProt entry, the sequences of proteins in these tests, tags left out. Residues count along the entry.
UniProt P0A1I3, residues 357-685: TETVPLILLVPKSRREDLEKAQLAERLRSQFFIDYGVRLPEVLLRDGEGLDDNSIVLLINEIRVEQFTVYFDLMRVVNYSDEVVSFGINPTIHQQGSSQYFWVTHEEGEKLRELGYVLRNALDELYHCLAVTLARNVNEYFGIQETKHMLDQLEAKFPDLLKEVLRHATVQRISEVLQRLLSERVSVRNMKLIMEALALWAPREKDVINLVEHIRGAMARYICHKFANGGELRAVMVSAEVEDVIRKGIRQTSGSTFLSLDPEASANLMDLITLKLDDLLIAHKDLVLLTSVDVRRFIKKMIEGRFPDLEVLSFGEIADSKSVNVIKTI

How the values were obtained:
[1] = target: InvA cytoplasmic domain (InvAC) (Salmonella enterica serovar Typhimurium) (UniProt P0A1I3); test: SEC; gel filtration of purified cytoplasmic domains (Superdex 200 Increase 10/300 GL; 20 mM Tris-HCl pH 8.0, 150 mM NaCl); Fig. 1B at two salt concentrations (physiological and high salt); Fig. 4D wild type and variants; both purified
[2] = target: InvA cytoplasmic domain (InvAC) (Salmonella enterica serovar Typhimurium) (UniProt P0A1I3); test: dynamic light scattering; DynaPro NanoStar, cuvette; 0.5 mg/ml protein in 20 mM Tris-HCl pH 8.0, 150 mM NaCl; 25 °C; both purified
[3] = target: SsaVCN4 (deletion of M346-V347-P348-G349) (Salmonella enterica serovar Typhimurium) (UniProt P74856); test: SEC; gel filtration of purified cytoplasmic domains (Superdex 200 Increase 10/300 GL; 20 mM Tris-HCl pH 8.0, 150 mM NaCl); Fig. 1B at two salt concentrations (physiological and high salt); Fig. 4D wild type and variants; both purified

With “InvA cytoplasmic domain (InvAC) (from UniProt P0A1I3 357-685) (domain or fragment)” the binding [1] was “no binding” and the binding [2] was “no binding (tested: 0.5 mg/ml)”.

For “SsaVCN4 (deletion of M346-V347-P348-G349) (from UniProt P74856 346-681) (domain or fragment)”, the binding [3] was “no binding”.
